# Measurements reported in US7393944.
# Construct, isoform or probe ends are uncertain for at least one entry. Tags and fusion partners may be left off the protein sequences shown.
# Biological target: T1, T-bet (Mus musculus) (UniProt Q9JKD8)
# T1 sequence: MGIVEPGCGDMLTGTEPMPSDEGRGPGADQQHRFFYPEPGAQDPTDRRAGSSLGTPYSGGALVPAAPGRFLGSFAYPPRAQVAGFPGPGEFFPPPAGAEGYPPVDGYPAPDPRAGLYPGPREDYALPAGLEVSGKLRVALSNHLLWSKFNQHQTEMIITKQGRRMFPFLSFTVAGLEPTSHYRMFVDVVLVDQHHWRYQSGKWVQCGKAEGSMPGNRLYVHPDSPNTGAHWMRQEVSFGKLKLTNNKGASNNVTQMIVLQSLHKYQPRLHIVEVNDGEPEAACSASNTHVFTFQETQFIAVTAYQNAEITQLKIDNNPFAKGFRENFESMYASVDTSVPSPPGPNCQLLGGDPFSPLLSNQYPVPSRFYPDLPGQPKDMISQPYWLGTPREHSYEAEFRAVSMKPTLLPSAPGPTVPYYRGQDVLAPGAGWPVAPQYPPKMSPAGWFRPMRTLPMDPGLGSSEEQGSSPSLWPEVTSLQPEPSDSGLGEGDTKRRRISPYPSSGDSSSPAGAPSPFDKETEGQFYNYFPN
# Experiment: binding assay
# Conditions: recombinant T-bet binds T-box site in IL-2 promoter; method not stated; purified recombinant protein
sequence,measurement,value
AAACTGCCACCTAAGTGTGGGCTA (double strand) [murine IL-2 promoter T-box site],binding result,binds
